System: SW620 cells
Conditions: SW620, in the presence of pyrvinium

Cc1cc(/C=C/c2ccc3cc(N(C)C)ccc3[n+]2C)c(C)n1-c1ccccc1 [pyrvinium, pyrvinium pamoate]
5-FU-induced apoptosis: greatly enhanced
